Data as given in paper PMC7848174.
No constants are given. Whether binding was seen depends on the method and setting. In cells and extracts the contact can be indirect. Some binding calls cover weakened binding; strength is not graded here.

Molecular target: T1, high-molecular mass rhoptry protein 3 (PfRhopH3) (P. falciparum (endogenous in NF54 schizonts)) (UniProt Q8I395)
T1 sequence: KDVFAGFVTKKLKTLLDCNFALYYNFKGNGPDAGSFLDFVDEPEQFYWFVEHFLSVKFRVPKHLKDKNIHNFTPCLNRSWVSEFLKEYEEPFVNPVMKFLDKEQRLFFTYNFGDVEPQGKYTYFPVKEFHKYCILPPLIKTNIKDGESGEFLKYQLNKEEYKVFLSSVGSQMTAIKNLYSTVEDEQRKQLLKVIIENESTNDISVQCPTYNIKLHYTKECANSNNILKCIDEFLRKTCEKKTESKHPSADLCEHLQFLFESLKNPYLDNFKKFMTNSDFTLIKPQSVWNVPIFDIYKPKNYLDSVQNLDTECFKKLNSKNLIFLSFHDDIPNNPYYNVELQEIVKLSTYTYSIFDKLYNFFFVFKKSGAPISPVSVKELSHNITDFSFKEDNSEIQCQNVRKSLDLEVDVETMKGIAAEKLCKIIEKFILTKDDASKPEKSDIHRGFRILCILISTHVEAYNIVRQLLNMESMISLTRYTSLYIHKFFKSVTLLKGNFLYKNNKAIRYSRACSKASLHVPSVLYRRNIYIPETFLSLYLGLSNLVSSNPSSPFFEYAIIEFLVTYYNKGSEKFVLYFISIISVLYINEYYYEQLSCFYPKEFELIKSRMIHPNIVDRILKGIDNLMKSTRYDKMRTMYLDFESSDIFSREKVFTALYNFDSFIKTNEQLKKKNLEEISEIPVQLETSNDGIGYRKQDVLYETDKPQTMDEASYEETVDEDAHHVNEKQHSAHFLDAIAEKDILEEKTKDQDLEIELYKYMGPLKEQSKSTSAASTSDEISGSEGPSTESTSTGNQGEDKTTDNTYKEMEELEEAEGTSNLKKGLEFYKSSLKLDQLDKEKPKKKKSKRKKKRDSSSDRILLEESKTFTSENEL
Assay: co-IP; eluates of the monoclonal antibody-conjugated affinity columns (schizont lysate) resolved by SDS-PAGE and probed by western blot with the other monoclonal antibody of the pair

B1: high-molecular mass rhoptry protein 2 (PfRhopH2) (protein, UniProt C0H571 20-1378)
chain: LELNEKVSIKYGAEQGVGSADSNTKLCSDILKYLYMDEYLSEGDKATFEKKCHNVIGNIRNTFSNKNTIKEGNEFLMSILHMKSLYGNNNNNNAGSESDVTLKSLYLSLKGSQNTEGESEVPSDDEINKTIMNFVKFNKYLLDNSNDIKKVHDFLVLTSQSNENLLPNKEKLFEQIVDQIKYFDEYFFASGGKIKVKKGYLKYNFLDIYKQPVCSAYLHLCSRYYESVSIYIRLKKVFNGIPAFLDKNCRKVKGEEFKKLMDMELKHNHIVERFDKYIISDDLYYVNMKVFDLKNVDKIQVSKIDDINNLNIYEHKETMHLSAKNLSRYIDIKKELNDEKAYKQLMSAIRKYVTTLTKADSDITYFVKQLDDEEIERFLIDLNFFLYNGFLRITEDKHLINADDVSPSYINLYRSNNIVALYILKTQYEENKLSEYRAHKFYRRKRVSNITNDMIKKDFTQTNALTNLPNLDNKKTTEYYLKEYENFVENFQPDLHDIMKLQLFFTMAFKDCNVNQNFTETSKKLWFDLLYAYDKFGWFYIHPNEVINSINKTDFVRHVLVSRNFLLKNNDQLTFLETQVAKIVEIINLSLEVDKSPDSLDFSIPMNFFNHKNGYHVMNDDKLKLLTSYEYIDSIANNYFFLSEYKNDVFRTGNNFKLYFNLPNIYSLAYQLFNELAININVITNVPLKKYLKYNASYAYFTLMNMIGKNHDIYSKGSRFVYASYILGLVFFIESHIDIARLKPKDFFFMKQSLPIIDHVYHKDLKTLKKNCTLLTDFMKINKNSQNYSLTHTEEMIKILGLLTVTLWAKEGKKSVYYDDDVSLYRKLMVSCVFNGGETIQEKLANNIEKSCDISQYGIKSKNLKDMIDINLSIHKWNPAEIEKLAYSFVLSCKMQKLMYKPMNVEKLPLEDYYKLSLAPDMVKTYHCYKLGKQAAELLESIILKKKFVRFRVTDAIDVYDFFYIKKVLSSRIKKEYNEFLQDKRAFEKKELETILNNSPFSEEQTMKLINSYECHWFTSYENFRILWMHASSNLGTGTYLKNFFSELWQNIRFLFKSKLKIRDMEYFSGDISQMNLLDYYSPMVHSESHCQEKMQVLFITLRDSKEENRSEIAQKVKSAYYQCKLDYYKNHHSDFIHRIHPNDFLNNKVYVLKQPYYLMSNVPLNNPKKVSRLFVTEGTLEYLLLDKINIPECFGPCTKLHFNKVVIKESKQRIYDMTINNALVPEIQPYNRRKYMTIYINEAYIKNIVSDALTSEEIKRHDIQKGNIKICMGKSTYLTEPILTEEHFNLTHKPVYDFSSVKHNLKVFHMKNEHLVSEDPNDDCFINYPLATINLDISDPYKEISEDLIKNLYILKSS
Question: Which binding does the source give for B1 here?
Answer: The binding was “binds”.
